Laboratory results taken from article PMC8164027.

Target: T1, N-terminal Myc-tagged Tsa1 with a mutation in its resolving cysteine residue (Tsa1-C171S) (S. cerevisiae) (UniProt P34760)
T1 sequence: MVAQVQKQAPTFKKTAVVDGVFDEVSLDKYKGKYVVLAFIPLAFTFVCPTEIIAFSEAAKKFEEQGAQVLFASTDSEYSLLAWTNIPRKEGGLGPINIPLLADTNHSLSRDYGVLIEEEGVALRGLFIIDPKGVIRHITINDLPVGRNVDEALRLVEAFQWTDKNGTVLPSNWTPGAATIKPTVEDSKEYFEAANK
Assay: affinity purification with mass spectrometry; Myc-Tsa1-C171S precipitated with anti-myc affinity beads from lysates of a tsa1 mutant, cells untreated or treated with hydrogen peroxide or AZC for 2 h; 4 h at 4 °C; washes in IPP50 buffer (10 mM Tris pH 8.0, 50 mM NaCl); vector-only control; hits in two of three repeats

binding: binds
B1: Bcy1, the regulatory subunit of PKA (protein, UniProt P07278 1-416)
chain: MVSSLPKESQAELQLFQNEINAANPSDFLQFSANYFNKRLEQQRAFLKAREPEFKAKNIVLFPEPEESFSRPQSAQSQSRSRSSVMFKSPFVNEDPHSNVFKSGFNLDPHEQDTHQQAQEEQQHTREKTSTPPLPMHFNAQRRTSVSGETLQPNNFDDWTPDHYKEKSEQQLQRLEKSIRNNFLFNKLDSDSKRLVINCLEEKSVPKGATIIKQGDQGDYFYVVEKGTVDFYVNDNKVNSSGPGSSFGELALMYNSPRAATVVATSDCLLWALDRLTFRKILLGSSFKKRLMYDDLLKSMPVLKSLTTYDRAKLADALDTKIYQPGETIIREGDQGENFYLIEYGAVDVSKKGQGVINKLKDHDYFGEVALLNDLPRQATVTATKRTKVATLGKSGFQRLLGPAVDVLKLNDPTRH

binding: binds
B2: Ser3 (protein, UniProt P40054 1-469)
chain: MTSIDINNLQNTFQQAMNMSGSPGAVCTSPTQSFMNTVPQRLNAVKHPKILKPFSTGDMKILLLENVNQTAITIFEEQGYQVEFYKSSLPEEELIEKIKDVHAIGIRSKTRLTSNVLQHAKNLVCIGCFCIGTNQVDLDYATSRGIAVFNSPFSNSRSVAELVIAEIISLARQLGDRSIELHTGTWNKVAARCWEVRGKTLGIIGYGHIGSQLSVLAEAMGLHVLYYDIVTIMALGTARQVSTLDELLNKSDFVTLHVPATPETEKMLSAPQFAAMKDGAYVINASRGTVVDIPSLIQAVKANKIAGAALDVYPHEPAKNGEGSFNDELNSWTSELVSLPNIILTPHIGGSTEEAQSSIGIEVATALSKYINEGNSVGSVNFPEVALKSLSYDQENTVRVLYIHQNVPGVLKTVNDILSNHNIEKQFSDSNGEIAYLMADISSVDQSDIKDIYEQLNQTSAKISIRLLY

Results are given in words; binding and its absence hold for the method and conditions named. Binding seen in cells or lysates may run through a third protein. A yes stands for co-enrichment or nearness to the bait. Other partners may have been found. Tags and fused reporters may be left off the sequences shown. One block for each binder: values may come before it.
